Article PMC6317822, “RSM1, an Arabidopsis MYB protein, interacts with HY5/HYH to modulate seed germination and seedling development in response to abscisic acid and salinity” (PLoS Genetics, 2018)
These are yes or no findings as the source states them, for the method shown. For some assays here: In cells and extracts the contact can be indirect. Some entries that bind do so weakly or less than the wild type. Sequences can lack the tags named with a protein.

T1: GST-HYH (HY5 HOMOLOG) (Arabidopsis) (UniProt Q8W191)
T1 sequence: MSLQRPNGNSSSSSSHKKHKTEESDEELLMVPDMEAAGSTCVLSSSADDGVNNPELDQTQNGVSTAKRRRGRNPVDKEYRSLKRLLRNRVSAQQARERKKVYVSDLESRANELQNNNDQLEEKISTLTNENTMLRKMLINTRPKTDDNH

T2: YFP^C-HY5 (Arabidopsis) (UniProt O24646)
T2 sequence: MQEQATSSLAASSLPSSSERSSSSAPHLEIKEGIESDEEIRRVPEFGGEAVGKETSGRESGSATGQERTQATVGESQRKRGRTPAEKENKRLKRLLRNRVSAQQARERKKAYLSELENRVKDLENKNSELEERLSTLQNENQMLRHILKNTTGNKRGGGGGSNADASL

T3: YFP^C-HYH (Arabidopsis) (UniProt Q8W191)
T3 sequence: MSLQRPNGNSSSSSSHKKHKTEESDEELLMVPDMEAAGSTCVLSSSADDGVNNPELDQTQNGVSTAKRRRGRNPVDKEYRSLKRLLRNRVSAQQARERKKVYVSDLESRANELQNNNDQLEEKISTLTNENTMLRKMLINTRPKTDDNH


Assays:
[1] = biological target: T1, GST-HYH (HY5 HOMOLOG) (Arabidopsis); experiment: pull-down; 2 ug GST or GST fusion protein mixed with 2 ug His-RSM1 in 500 uL GST binding buffer (50 mM Tris-HCl pH 7.5, 100 mM NaCl, 0.1% Nonidet P-40), Glutathione Sepharose 4B beads, 4 C, 2 h; four washes; immunoblot with anti-GST or anti-His; both purified
[2] = biological target: T2, YFP^C-HY5 (Arabidopsis); experiment: split reporter; BiFC; YFP^N and YFP^C fusions transiently co-transformed into Arabidopsis mesophyll protoplasts; overnight in the dark; confocal microscopy
[3] = biological target: T3, YFP^C-HYH (Arabidopsis); experiment: as above
[4] = biological target: T2, YFP^C-HY5 (Arabidopsis); experiment: split reporter; BiFC; YFP^N and YFP^C fusions co-transformed into onion epidermal cells by particle bombardment; overnight in the dark; confocal microscopy, DAPI for nuclei
[5] = biological target: T3, YFP^C-HYH (Arabidopsis); experiment: as above

binding [1]	binding [2]	binding [3]	binding [4]	binding [5]	Binder
binds	–	–	–	–	His-RSM1 (RADIALIS-LIKE SANT/MYB 1) (natural protein, Arabidopsis, UniProt Q9SIJ5 1-101, looked up, the CDS of RSM1 cloned into the BamHI and SacI sites of pET28a; also called MEE3; MATERNAL EFFECT EMBRYO ARREST 3; source: E. coli BL21 (pET28a-RSM1, 1 mM IPTG), purified with Ni-NTA beads) MASGSMSSYGSGSWTVKQNKAFERALAVYDQDTPDRWHNVARAVGGKTPEEAKRQYDLLVRDIESIENGHVPFPDYKTTTGNSNRGRLRDEEKRMRSMKLQ
–	binds	binds	binds	binds	YFP^N-RSM1 (protein, UniProt Q9SIJ5 1-101) MASGSMSSYGSGSWTVKQNKAFERALAVYDQDTPDRWHNVARAVGGKTPEEAKRQYDLLVRDIESIENGHVPFPDYKTTTGNSNRGRLRDEEKRMRSMKLQ
